# Measured values: PubChem BioAssay AID720504 (National Center for Advancing Translational Sciences (NCATS), 2013)
# Amino acid sequences for entries named in this document (tags omitted).
# UniProt P53350, whole entry, looked up: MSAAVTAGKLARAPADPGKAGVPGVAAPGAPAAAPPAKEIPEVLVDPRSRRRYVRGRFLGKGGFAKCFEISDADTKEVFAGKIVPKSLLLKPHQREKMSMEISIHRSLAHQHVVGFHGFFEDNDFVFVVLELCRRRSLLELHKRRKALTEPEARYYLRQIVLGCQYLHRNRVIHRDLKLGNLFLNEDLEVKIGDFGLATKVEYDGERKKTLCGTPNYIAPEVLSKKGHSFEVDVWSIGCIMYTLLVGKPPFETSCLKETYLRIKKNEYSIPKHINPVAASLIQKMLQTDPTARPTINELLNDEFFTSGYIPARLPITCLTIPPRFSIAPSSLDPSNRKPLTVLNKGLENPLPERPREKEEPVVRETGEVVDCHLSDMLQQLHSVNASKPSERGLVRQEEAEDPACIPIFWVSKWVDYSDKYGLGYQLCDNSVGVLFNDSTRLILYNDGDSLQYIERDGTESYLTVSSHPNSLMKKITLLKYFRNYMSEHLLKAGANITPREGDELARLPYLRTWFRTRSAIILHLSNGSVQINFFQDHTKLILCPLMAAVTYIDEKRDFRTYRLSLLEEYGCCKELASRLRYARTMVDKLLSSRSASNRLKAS
# The whole screen tested about 360,000 compounds, of which about 10,000 (2.8%) were called active. Inconclusive means that the source gave no clear call. Such entries were picked first, then a sample of the others. Calls come from the whole dose curve; as a rule, active = well fitted inhibition curve with a large enough effect; inconclusive = small, poorly fitted or top-dose-only effect; inactive = flat fitted curve, though single readings scatter. Potencies beside an inconclusive call are fits to weak or partial responses and may not hold up.
# Target: Serine/threonine-protein kinase PLK1 (Homo sapiens) (UniProt P53350)
# Assay: qHTS for Inhibitors of PLK1-PDB (polo-like kinase 1 - polo-box domain): Primary Screen; note: nearly all actives have a fitted effect of over 65% in size; for max response, negative = inhibition: series mostly up to about 57 µM
# Conditions: Plk1 PBD binding of FITC phosphopeptide, fluorescence polarization
# % is set by controls: 0 for no effect and ±100 for the full control effect; potency is the fitted concentration of half-maximal effect.
Structure (SMILES),"max response, negative = inhibition",Potency
CCN1C(=O)[C@H]2[C@@H](c3ccc(-c4ccc(OC)cc4)cc3)N3CCC[C@@]3(C(=O)OC)[C@H]2C1=O,inactive: 2.05%,
COc1ccccc1S(=O)(=O)Cc1ccc(C(=O)NCc2ccc3c(c2)OCO3)o1,inactive: -10.5%,
COC(=O)C1=C(C)NC(C)=C(C(=O)OC)C1c1ccc(OC(=O)c2oc3ccccc3c2C)c(OC)c1,inactive: -5.63%,
CCOC(=O)C=C(C(=O)OCC)C(=O)OCC,,active: 10.6 µM
CC1CCN(S(=O)(=O)c2ccc(NC(=S)NC(=O)c3ccc(Cl)cc3)cc2)CC1,,"inconclusive: 18.9 µM [inhibitor, partial curve]"
CC(NC(=O)c1ccc(S(=O)(=O)N(C)C)cc1)c1ccccc1 (configuration not stated),,"inconclusive: 29.9 µM [inhibitor, partial curve]"
O=C(NCCF)C1Nc2ccc(OC(F)(F)F)cc2C2C=CCC12 (configuration not stated),,"inconclusive: 37.7 µM [inhibitor, single point]"
O=C(/C=C/c1ccco1)Nc1ccc2nn(-c3ccccc3)nc2c1,inactive: -3.55%,
COc1ccc(-c2cc(NC(C)=O)c3ncc(-c4ccc(F)cc4)n3c2)cc1OC,,"inconclusive: 26.7 µM [inhibitor, single point]"
CC[C@]12c3[nH]c4cc(-c5ccco5)ccc4c3CCN1C(=O)[C@@H](CC(=O)NCCCOC)C[C@@H]2C(=O)N1CCN(C(=O)c2ccco2)CC1,,active: 21.2 µM
O=C(O)c1ccc2c(c1)C(=O)/C(=C/c1ccccc1)C2=O,,active: 2.38 µM
O=C(CCN1CCN(c2ccc([N+](=O)[O-])cc2)CC1)c1ccc(Cl)cc1,,"inconclusive: 9.47 µM [inhibitor, partial curve]"
Cc1cc(/C=C2\C(=N)N3N=C(S(C)(=O)=O)SC3=NC2=O)c(C)n1Cc1ccccc1,,active: 26.7 µM
COCC(=O)NC(c1ccccc1)c1ccccc1,inactive: -3.21%,
Nc1sc(-c2ccccc2)c(Cc2ccccc2)c1C(=O)O,inconclusive: -35.5% [inhibitor],
Cc1ccc(NC(=S)N(CCCN2CCOCC2)Cc2cccs2)c(C)c1,,active: 18.9 µM
Cn1sc2ccccc2c1=O,,active: 4.74 µM
Cc1cc2nc3ccc(=[N+](C)C)cc-3sc2cc1N,,"inconclusive: 21.2 µM [inhibitor, partial curve]"
Cc1ccc(Nc2ncccc2C(N)=O)cc1[N+](=O)[O-],,"inconclusive: 10.6 µM [inhibitor, partial curve]"
CCN(CC)C(=S)SSC(=S)N(CC)CC,,active: 0.844 µM
COc1cccc(NC(=O)CN(C)C(=O)c2ccc3[nH]c4c(c3c2)CC(C)CC4)c1 (configuration not stated),inactive: 8.4%,
CSc1cccc(NC(=S)Nc2cc(C)ccc2C)c1,inactive: -7.23%,
CC(C)c1ccc(C(=O)N2CCOCC2c2cc(C(=O)Nc3ccccc3)no2)cc1 (configuration not stated),inactive: -2.96%,
O=C(NCc1ccccc1Cl)C(=O)NCC(c1ccco1)N1CCOCC1 (configuration not stated),inactive: -10%,

# Entries of single compounds as entered above:
# Cc1cc2nc3ccc(=[N+](C)C)cc-3sc2cc1N reads Potency: inconclusive: 21.2 µM [inhibitor, partial curve]
# Cc1ccc(NC(=S)N(CCCN2CCOCC2)Cc2cccs2)c(C)c1 reads Potency: active: 18.9 µM
# COC(=O)C1=C(C)NC(C)=C(C(=O)OC)C1c1ccc(OC(=O)c2oc3ccccc3c2C)c(OC)c1 reads max response, negative = inhibition: inactive: -5.63%
# Cc1cc(/C=C2\C(=N)N3N=C(S(C)(=O)=O)SC3=NC2=O)c(C)n1Cc1ccccc1 reads Potency: active: 26.7 µM

# More records:

Structure (SMILES),"max response, negative = inhibition",Potency
c1coc(C2Nc3ccccc3C3OCCC23)c1 (configuration not stated),,"inconclusive: 23.8 µM [inhibitor, partial curve]"
COc1ccccc1/C=C/C=N/n1c(-c2ccncc2)n[nH]c1=S,inactive: -7.94%,
Cc1ccc2ccc(C(Nc3ccccn3)c3ccccc3)c(O)c2n1 (configuration not stated),inconclusive: -34.5% [inhibitor],
CN1CCC2(CC1)C1CN(C)CC=C1C(C#N)=C(N)C2(C#N)C#N (configuration not stated),,"inconclusive: 26.7 µM [inhibitor, partial curve]"
O=C1ON=C(c2ccccc2)/C1=C/c1ccc(O)c(O)c1,,"inconclusive: 2.67 µM [inhibitor, full curve]"
COc1ccccc1-n1ccnc(SCC(=O)NCc2ccccc2)c1=O,inconclusive: -31% [inhibitor],
CCOC(=O)c1c(-c2ccco2)csc1N,,"inconclusive: 26.7 µM [inhibitor, partial curve]"
Cc1oc(-c2cccc(Br)c2)[n+]([O-])c1C,,"inconclusive: 26.7 µM [inhibitor, single point]"
O=C(NC(=S)NN1CCOCC1)c1cc(Br)ccc1Cl,,"inconclusive: 33.6 µM [inhibitor, single point]"
Cc1c(NC(=O)c2cccc(F)c2)c(=O)n(-c2ccccc2)n1C,inactive: 4.88%,
COc1ccccc1CNC(=S)NCc1ccc(Cl)cc1,inactive: 0.869%,
CC(C)(C)SCCNC(=O)/C=C/c1cccc([N+](=O)[O-])c1,,"inconclusive: 37.7 µM [inhibitor, single point]"
Cc1ccc(SC(=O)COc2ccccc2C)cc1,,"inconclusive: 10.6 µM [inhibitor, partial curve]"
CC(=O)n1nc(-c2ccco2)nc1SCc1ccccc1,,"inconclusive: 10.6 µM [inhibitor, full curve, poor fit]"
CCn1nc(C)c(/C=N/NC(=O)Cn2nccc2C)c1C,,"inconclusive: 26.7 µM [inhibitor, single point]"
Cc1cc(C)nc(NS(=O)(=O)c2ccccc2)n1,inactive: -8.19%,
C=CCNC(=O)c1ccc(CSc2nc3ccccc3s2)cc1,inconclusive: -30.5% [inhibitor],
CCOC(=O)c1ccccc1NC(=O)COC(=O)c1cc([N+](=O)[O-])ccc1N1CCOCC1,inconclusive: -31.3% [inhibitor],
CNC(=S)NN=C(C)c1ccc(OC)cc1O,,"inconclusive: 26.7 µM [inhibitor, single point]"
COc1ccc2[nH]c3c(c2c1)CCN1C(=O)C(CC(=O)NCCC2=CCCCC2)C[C@H](C(=O)N2CCCCC2)[C@@]31CCc1ccccc1 (some centres not stated),,"inconclusive: 21.2 µM [inhibitor, partial curve]"
Cn1c(=O)c2[nH]c(=O)cnc2n(C)c1=S,,active: 29.9 µM
CC(C)C(=O)Nc1ccc2c(c1)Cc1cc(NC(=O)C(C)C)ccc1-2,inactive: -5.15%,
O=c1cc2c(=O)oc3cc(O)c(O)oc3c2c(O)c1O,,"inconclusive: 26.7 µM [inhibitor, single point]"
O=C(O)Cc1sc(-c2ccccc2Cl)nc1-c1ccccc1,inactive: -8.16%,

Structure (SMILES),"max response, negative = inhibition",Potency
CC(C)CN1CCC(=O)N([C@H](CSc2ccc(Br)cc2)c2ccccc2)CC1,,"inconclusive: 13.4 µM [inhibitor, partial curve]"
O=C(/C=C1\SC(=O)NC1=O)Nc1ccc(F)cc1,,"inconclusive: 9.47 µM [inhibitor, partial curve]"
O=C(Oc1ccccc1N1C(=O)CCC1=O)c1ccco1,,"inconclusive: 26.7 µM [inhibitor, partial curve, poor fit]"
COC(=O)c1ccccc1NC(=S)NC(=O)c1ccc(C)cc1,inconclusive: -32.2% [inhibitor],
CCNC(=S)NS(=O)(=O)c1ccc(Cl)cc1,,"inconclusive: 29.9 µM [inhibitor, partial curve]"
N#CC1=C(SCC(=O)c2cc3ccccc3oc2=O)NC(=O)C(C#N)C12CCCC2 (configuration not stated),inactive: -15.6%,"inconclusive: 37.7 µM [inhibitor, partial curve]"
Cc1ccc(C(=O)N2Cc3ccccc3CC2C(=O)O)cc1 (configuration not stated),inactive: -6.47%,
CCOc1ccc(CCNC(=O)CCC(=O)Nc2ccc3nc(N4CCN(C)CC4)cc(C)c3c2)cc1OCC,,"inconclusive: 37.7 µM [inhibitor, single point]"
O=C(/C=C/c1cccc(O)c1)c1cccnc1,,"inconclusive: 21.2 µM [inhibitor, partial curve]"
S=c1nn[nH]n1C12CC3CC(CC(C3)C1)C2,,"inconclusive: 29.9 µM [inhibitor, partial curve]"
Cc1cccc(N(C)S(=O)(=O)c2c(C)[nH]c(C)c2C(=O)N2CCCC2)c1,,active: 23.8 µM
COCCN(C(=O)C1CC(=O)N(Cc2ccccc2)C1)c1nc(-c2ccc([N+](=O)[O-])cc2)cs1 (configuration not stated),,"inconclusive: 67 µM [inhibitor, partial curve]"
CCC(=O)N1CCc2cc(S(=O)(=O)CCC(=O)Nc3cccc(F)c3)ccc21,,"inconclusive: 26.7 µM [inhibitor, partial curve]"
COc1ccc(C2NS(=O)(=O)N=C2N)cc1 (configuration not stated),,active: 18.9 µM
CCC1CCCCN1CCCNC(=O)C1CCCN(c2nn3c(=O)cc(C)nc3s2)C1 (configuration not stated),,"inconclusive: 26.7 µM [inhibitor, partial curve]"
O=C(Oc1ccc(N2C(=O)CCC2=O)cc1)c1ccccc1,,"inconclusive: 33.6 µM [inhibitor, single point]"
COc1cccc(C(=O)N[C@@H](C)C(=O)N2CCC3(CC2)NCCc2[nH]cnc23)c1,inactive: -10.4%,
Cc1ccc(N/C(C(Cl)=C(Cl)Cl)=C(/Cl)[N+](=O)[O-])c(C)c1,,"inconclusive: 29.9 µM [inhibitor, partial curve]"
CC(=O)C1=C(O)C(=O)N(c2ccc(S(N)(=O)=O)cc2)C1c1cccc([N+](=O)[O-])c1 (configuration not stated),,active: 26.7 µM
CC(=NNC(=S)N1CCN(c2ccccn2)CC1)c1nccs1,inactive: -7.06%,
CC(=O)CSc1ccc(-c2nc3cc(C)c(C)cc3[nH]2)cn1,,"inconclusive: 29.9 µM [inhibitor, partial curve]"
COc1cccc(C2c3[nH]c4ccccc4c3C[C@H]3C(=O)N(c4ccccc4C(=O)N4CCC(C(=O)O)CC4)C(=O)N23)c1 (some centres not stated),,"inconclusive: 67 µM [inhibitor, partial curve]"
COc1ccc(C(c2nnnn2C2CCCC2)N2CCN(C3CCCC3)CC2)cc1OC (configuration not stated),inactive: -5.77%,
